Measurements taken from the supplement of paper PMC6411743.
± gives the standard deviation of the averaged measurements. The list shows a part of the results.

Columns and labels:
Assay in all cases: NP40-soluble protein abundance relative to vehicle (solubility fold change) (ratio); higher = more soluble protein in presence of GTP
[1] = target: T1, E9PKP0 and related entries (UniProt Q8TDP1)
T1 sequence (whole entry): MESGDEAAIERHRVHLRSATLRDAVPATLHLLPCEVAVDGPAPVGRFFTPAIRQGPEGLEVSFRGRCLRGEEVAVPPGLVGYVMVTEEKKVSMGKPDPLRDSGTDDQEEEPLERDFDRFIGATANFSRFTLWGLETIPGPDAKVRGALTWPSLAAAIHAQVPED
Procedure, shortened: (§1)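 Each value is a fold change relative to the detergent-processed vehicle, calculated per replicate from vsn-normalised intensities. Jurkat crude lysate received eight concentrations (0.1 to 10 mM) for 10 min at room temperature and 3 min at 37 °C, then was solubilised in 0.8% NP40 with benzonase (60 min, 4 °C). The ultracentrifuged supernatant was TMT-labelled and run by LC-MS/MS in three independent experiments.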

[2] = target: T2, E9PMW7 and related entries (UniProt P29692)
T2 sequence (whole entry): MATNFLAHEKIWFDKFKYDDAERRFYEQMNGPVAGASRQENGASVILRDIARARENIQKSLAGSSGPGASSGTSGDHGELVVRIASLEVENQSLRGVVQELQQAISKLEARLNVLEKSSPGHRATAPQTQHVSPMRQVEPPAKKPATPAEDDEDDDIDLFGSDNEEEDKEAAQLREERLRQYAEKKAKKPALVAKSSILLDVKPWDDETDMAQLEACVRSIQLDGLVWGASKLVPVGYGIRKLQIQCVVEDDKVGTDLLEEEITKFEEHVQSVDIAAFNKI
Procedure, shortened: as §1

E9PNT2 = target: T3, E9PNT2 (UniProt Q6ZUM4)
T3 sequence (whole entry): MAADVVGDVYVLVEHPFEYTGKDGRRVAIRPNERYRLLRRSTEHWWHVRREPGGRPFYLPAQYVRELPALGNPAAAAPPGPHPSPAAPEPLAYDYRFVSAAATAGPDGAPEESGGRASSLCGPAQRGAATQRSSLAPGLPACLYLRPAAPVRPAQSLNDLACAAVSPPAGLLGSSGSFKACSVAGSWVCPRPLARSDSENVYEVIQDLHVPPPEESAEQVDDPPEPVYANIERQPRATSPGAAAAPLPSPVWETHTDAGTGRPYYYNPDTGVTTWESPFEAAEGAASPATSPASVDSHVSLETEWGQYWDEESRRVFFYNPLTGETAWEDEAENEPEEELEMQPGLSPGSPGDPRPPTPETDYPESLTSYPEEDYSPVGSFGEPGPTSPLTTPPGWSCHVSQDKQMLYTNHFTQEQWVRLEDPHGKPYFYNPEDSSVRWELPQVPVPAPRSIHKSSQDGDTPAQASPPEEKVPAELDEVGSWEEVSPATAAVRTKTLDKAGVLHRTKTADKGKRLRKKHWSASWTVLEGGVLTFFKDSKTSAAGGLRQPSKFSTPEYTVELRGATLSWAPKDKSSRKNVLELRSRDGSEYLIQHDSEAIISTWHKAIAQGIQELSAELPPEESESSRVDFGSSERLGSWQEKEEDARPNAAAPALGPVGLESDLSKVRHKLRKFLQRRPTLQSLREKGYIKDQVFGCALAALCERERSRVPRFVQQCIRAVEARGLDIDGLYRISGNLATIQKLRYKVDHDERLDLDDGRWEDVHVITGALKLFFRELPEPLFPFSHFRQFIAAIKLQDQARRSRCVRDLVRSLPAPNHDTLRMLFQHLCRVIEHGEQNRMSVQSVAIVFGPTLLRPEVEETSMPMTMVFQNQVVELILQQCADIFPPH
Procedure, shortened: as §1

[3] = target: T4, E9PRZ1 and related entries (UniProt Q96ER3)
T4 sequence (whole entry): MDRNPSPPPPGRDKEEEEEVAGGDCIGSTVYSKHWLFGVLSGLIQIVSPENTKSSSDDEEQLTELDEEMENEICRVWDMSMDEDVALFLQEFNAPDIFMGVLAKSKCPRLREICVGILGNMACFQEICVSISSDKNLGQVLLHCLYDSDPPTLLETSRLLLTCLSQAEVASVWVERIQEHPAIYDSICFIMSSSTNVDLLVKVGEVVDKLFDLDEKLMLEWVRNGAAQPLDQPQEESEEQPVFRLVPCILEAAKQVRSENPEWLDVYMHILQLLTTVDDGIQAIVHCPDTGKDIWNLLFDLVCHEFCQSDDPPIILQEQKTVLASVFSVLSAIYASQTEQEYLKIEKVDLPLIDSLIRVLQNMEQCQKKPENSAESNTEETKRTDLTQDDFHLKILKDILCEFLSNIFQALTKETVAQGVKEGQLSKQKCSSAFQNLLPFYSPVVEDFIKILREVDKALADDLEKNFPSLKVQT
Procedure, shortened: as §1

F5GX51 = target: T5, F5GX51 (UniProt Q9Y4F9)
T5 sequence (whole entry): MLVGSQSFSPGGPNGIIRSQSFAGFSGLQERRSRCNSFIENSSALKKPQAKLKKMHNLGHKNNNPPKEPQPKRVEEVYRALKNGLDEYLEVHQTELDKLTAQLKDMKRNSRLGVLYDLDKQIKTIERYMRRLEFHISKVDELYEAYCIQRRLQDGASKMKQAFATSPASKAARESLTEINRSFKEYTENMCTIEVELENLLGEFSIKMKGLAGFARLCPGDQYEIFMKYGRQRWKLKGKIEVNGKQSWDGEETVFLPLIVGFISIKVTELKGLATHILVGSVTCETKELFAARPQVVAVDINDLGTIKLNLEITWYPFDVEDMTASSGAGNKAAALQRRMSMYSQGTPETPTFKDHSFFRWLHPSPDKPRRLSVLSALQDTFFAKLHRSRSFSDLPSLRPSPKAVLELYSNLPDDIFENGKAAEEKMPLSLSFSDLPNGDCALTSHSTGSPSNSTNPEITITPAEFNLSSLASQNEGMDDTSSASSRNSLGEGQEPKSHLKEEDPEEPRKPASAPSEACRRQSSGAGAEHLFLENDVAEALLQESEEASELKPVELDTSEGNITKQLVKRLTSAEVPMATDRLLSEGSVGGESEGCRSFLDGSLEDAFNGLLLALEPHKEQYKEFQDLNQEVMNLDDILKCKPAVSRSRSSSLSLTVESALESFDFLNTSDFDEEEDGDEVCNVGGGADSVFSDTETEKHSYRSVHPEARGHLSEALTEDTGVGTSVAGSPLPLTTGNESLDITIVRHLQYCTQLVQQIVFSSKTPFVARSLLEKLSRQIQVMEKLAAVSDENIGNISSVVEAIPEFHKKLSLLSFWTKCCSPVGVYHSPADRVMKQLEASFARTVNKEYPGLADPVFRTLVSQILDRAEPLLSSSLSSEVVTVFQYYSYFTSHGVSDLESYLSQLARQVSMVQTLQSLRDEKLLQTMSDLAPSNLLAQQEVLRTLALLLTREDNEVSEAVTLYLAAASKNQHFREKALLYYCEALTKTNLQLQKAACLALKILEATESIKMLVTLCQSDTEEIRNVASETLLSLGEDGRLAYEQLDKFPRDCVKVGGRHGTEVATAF
Procedure, shortened: as §1

Work on `Nc1nc2c(ncn2[C@@H]2O[C@H](COP(=O)(O)OP(=O)(O)OP(=O)(O)O)[C@@H](O)[C@H]2O)c(=O)[nH]1` [guanosine triphosphate] yielded an NP40-soluble protein abundance ([1]; concentration: 8mM) of 0.898 ± 0.064, an NP40-soluble protein abundance ([1]; concentration: 10mM) of 0.894 ± 0.064 and an NP40-soluble protein abundance ([2]; concentration: 0.1mM) of 0.949 ± 0.09. For the same compound, the NP40-soluble protein abundance ([2]; concentration: 0.5mM) was 0.949 ± 0.066, the NP40-soluble protein abundance ([2]; concentration: 1mM) was 1.07 ± 0.13 and the NP40-soluble protein abundance ([2]; concentration: 2mM) was 1.09 ± 0.095. It also gave an NP40-soluble protein abundance ([2]; concentration: 4mM) of 1.07 ± 0.11, an NP40-soluble protein abundance ([2]; concentration: 6mM) of 1.11 ± 0.11 and an NP40-soluble protein abundance ([2]; concentration: 8mM) of 1.07 ± 0.16. For the same compound, the NP40-soluble protein abundance ([2]; concentration: 10mM) was 1.14 ± 0.2, the NP40-soluble protein abundance (E9PNT2; concentration: 0.1mM) was 1.08 ± 0.034 and the NP40-soluble protein abundance (E9PNT2; concentration: 0.5mM) was 1.02 ± 0.044. The NP40-soluble protein abundance (E9PNT2; concentration: 1mM) was 1.02 ± 0.058, the NP40-soluble protein abundance (E9PNT2; concentration: 2mM) was 0.988 ± 0.035 and the NP40-soluble protein abundance (E9PNT2; concentration: 4mM) was 1.01 ± 0.024. The NP40-soluble protein abundance (E9PNT2; concentration: 6mM) was 0.984 ± 0.048, the NP40-soluble protein abundance (E9PNT2; concentration: 8mM) was 0.954 ± 0.051 and the NP40-soluble protein abundance (E9PNT2; concentration: 10mM) was 0.943 ± 0.068. For the same compound, the NP40-soluble protein abundance ([3]; concentration: 0.1mM) was 0.96 ± 0.033, the NP40-soluble protein abundance ([3]; concentration: 0.5mM) was 0.954 ± 0.042 and the NP40-soluble protein abundance ([3]; concentration: 1mM) was 0.9505 ± 0.007. It also gave an NP40-soluble protein abundance ([3]; concentration: 2mM) of 0.924 ± 0.042, an NP40-soluble protein abundance ([3]; concentration: 4mM) of 0.961 ± 0.051 and an NP40-soluble protein abundance ([3]; concentration: 6mM) of 0.909 ± 0.051. The NP40-soluble protein abundance ([3]; concentration: 8mM) was 0.891 ± 0.058, the NP40-soluble protein abundance ([3]; concentration: 10mM) was 0.924 ± 0.031 and the NP40-soluble protein abundance (F5GX51; concentration: 0.1mM) was 0.981 ± 0.032. It also gave an NP40-soluble protein abundance (F5GX51; concentration: 0.5mM) of 0.991 ± 0.021, an NP40-soluble protein abundance (F5GX51; concentration: 1mM) of 0.988 ± 0.084 and an NP40-soluble protein abundance (F5GX51; concentration: 2mM) of 0.994 ± 0.074.
